Measured values: paper doi:10.1101/116491 (bioRxiv, 2017)
These are yes or no findings as the source states them, for the method shown. Tags and fused reporters may be left off the sequences shown.

Target: T1, Orange Carotenoid Protein, wildtype, His6-tagged, Synechocystis (OCP^WT) (Synechocystis), P74102
T1 chain: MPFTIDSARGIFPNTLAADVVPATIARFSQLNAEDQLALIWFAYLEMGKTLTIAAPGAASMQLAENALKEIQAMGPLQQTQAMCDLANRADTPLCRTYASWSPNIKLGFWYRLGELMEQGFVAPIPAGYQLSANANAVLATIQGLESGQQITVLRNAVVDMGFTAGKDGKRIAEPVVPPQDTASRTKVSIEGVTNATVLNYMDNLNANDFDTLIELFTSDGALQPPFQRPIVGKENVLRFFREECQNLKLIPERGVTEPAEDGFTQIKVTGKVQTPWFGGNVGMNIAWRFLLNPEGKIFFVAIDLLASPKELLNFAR
Experiment: cross-linking
Details: remark: other sources report otherwise

B1: Orange Carotenoid Protein, wildtype, His6-tagged, Synechocystis (OCP^WT), P74102 1-317 (protein)
chain: MPFTIDSARGIFPNTLAADVVPATIARFSQLNAEDQLALIWFAYLEMGKTLTIAAPGAASMQLAENALKEIQAMGPLQQTQAMCDLANRADTPLCRTYASWSPNIKLGFWYRLGELMEQGFVAPIPAGYQLSANANAVLATIQGLESGQQITVLRNAVVDMGFTAGKDGKRIAEPVVPPQDTASRTKVSIEGVTNATVLNYMDNLNANDFDTLIELFTSDGALQPPFQRPIVGKENVLRFFREECQNLKLIPERGVTEPAEDGFTQIKVTGKVQTPWFGGNVGMNIAWRFLLNPEGKIFFVAIDLLASPKELLNFAR
- binding: no binding (tested: 8.1 μM)
